In patent US20250236656A1, “MULTIMERIC POLYPEPTIDES AND USES THEREOF” (Amide Technologies, priority 2023, published 2025):
Entries after “also recorded” stand apart in the source; their conditions may differ. At least one compound was matched to its structure with a doubt left.

Assays:
Format in all cases: in vivo
[1] = test system: diet-induced obese (DIO) mice; assay: Oral glucose tolerance test (OGTT) in DIO mice
[2] = test system: diet-induced obese (DIO) mice; assay: Body mass composition by DEXA in DIO mice
Method: Four groups of diet-induced obesity (DIO) mice were dosed every day subcutaneously for 36 days. There were 8 animals in each group and 4 groups for total of 32 mice. The mice were acclimated for two weeks with 5 mL/kg of vehicle each day. The mice were fed a high fat diet for 2 weeks prior to and throughout the entirety of the study.
The average starting body weights for each group were: Group 1: 42.7 g+/−1.5 g; Group 2: 42.6 g+/−1.5 g; Group 3: 42.5 g+/−1.2 g; and Group 4: 42.7 g+/−1.7 g. The dosing for each group was: Group 1: vehicle; Group 2: 1-4 nmol/kg of BXL-801; Group 3: 5-20 nmol/kg of BXL-801; and Group 4: 10-40 nmol/kg of BXL-801.
The dosing schedule was 1 nmol/kg, 5 nmol/kg, and 10 nmol/kg of BXL-801 for the first 17 days. At day 17, the doses were doubled to 2 nmol/kg, 10 nmol/kg, and 20 nmol/kg of BXL-801, respectively. On day 24 the doses were doubled again to 4 nmol/kg, 20 nmol/kg, and 40 nmol/kg of BXL-801, respectively. The volume of each daily dose administered subcutaneously was 5 mL/kg.
The body mass composition was taken at the end of the study via Dual-Energy X-ray Absorptiometry (DEXA).
The data was analyzed with a simple one-way ANOVA followed by Tukey's HSD to identify pairwise differences.

[3] = test system: diet-induced obese (DIO) mice; assay: Body weight and food intake in DIO mouse model

Question: Which “glucose handling (OGTT)” value ([1]; 1-4, 5-20 and 10-40 nmol/kg groups vs vehicle) does the source give for `CC[C@H](C)[C@H](NC(=O)[C@H](Cc1ccccc1)NC(=O)[C@H](CCC(=O)O)NC(=O)[C@H](CCCCN)NC(=O)[C@H](C)NC(=O)[C@H](C)NC(=O)[C@H](CCC(N)=O)NC(=O)CNC(=O)[C@H](CCC(=O)O)NC(=O)[C@H](CC(C)C)NC(=O)[C@H](Cc1ccc(O)cc1)NC(=O)[C@H](CO)NC(=O)[C@H](CO)NC(=O)[C@@H](NC(=O)[C@H](CC(=O)O)NC(=O)[C@H](CO)NC(=O)[C@@H](NC(=O)[C@H](Cc1ccccc1)NC(=O)[C@@H](NC(=O)CNC(=O)[C@H](CCC(=O)O)NC(=O)C(C)(C)NC(=O)[C@H](Cc1c[nH]cn1)NC(C)=O)[C@@H](C)O)[C@@H](C)O)C(C)C)C(=O)N[C@@H](C)C(=O)N[C@@H](Cc1c[nH]c2ccccc12)C(=O)N[C@@H](CC(C)C)C(=O)N[C@H](C(=O)N[C@@H](CCCCN)C(=O)NCC(=O)N[C@@H](CCCNC(=N)N)C(=O)NCCOCCOCCOCCOCCOCCOCCOCCOCCC(=O)N[C@@H](CCCCNC(=O)CCOCCOCCOCCOCCOCCOCCOCCOCCNC(=O)[C@H](CCC(N)=O)NC(=O)[C@@H](NC(=O)[C@@H](NC(=O)[C@H](CC(N)=O)NC(=O)[C@H](Cc1c[nH]cn1)NC(=O)[C@H](CCCCN)NC(=O)[C@H](Cc1c[nH]c2ccccc12)NC(=O)[C@H](CC(=O)O)NC(=O)[C@H](CC(N)=O)NC(=O)[C@H](CCCCN)NC(=O)[C@H](CCCCN)NC(=O)CNC(=O)[C@H](CCCCN)NC(=O)[C@H](CCC(N)=O)NC(=O)[C@H](C)NC(=O)[C@H](CC(C)C)NC(=O)[C@H](CC(C)C)NC(=O)[C@H](Cc1c[nH]c2ccccc12)NC(=O)[C@H](CC(N)=O)NC(=O)[C@@H](NC(=O)[C@H](Cc1ccccc1)NC(=O)[C@H](CC(=O)O)NC(=O)[C@H](CCC(N)=O)NC(=O)[C@H](CCC(N)=O)NC(=O)[C@H](Cc1c[nH]cn1)NC(=O)[C@@H](NC(=O)[C@H](CCCCN)NC(=O)[C@H](CC(=O)O)NC(=O)[C@H](CCSC)NC(=O)[C@H](C)NC(=O)[C@@H](NC(=O)[C@H](CO)NC(=O)[C@H](Cc1ccc(O)cc1)NC(=O)[C@H](CC(=O)O)NC(=O)[C@H](CO)NC(=O)[C@@H](NC(=O)[C@H](Cc1ccccc1)NC(=O)[C@@H](NC(=O)CNC(=O)[C@H](CCC(=O)O)NC(=O)C(C)(C)NC(=O)[C@H](Cc1ccc(O)cc1)NC(C)=O)[C@@H](C)O)[C@@H](C)CC)[C@@H](C)CC)[C@@H](C)CC)C(C)C)[C@@H](C)CC)[C@@H](C)O)C(N)=O)C(C)C` [Construct 02] here?
Answer: improved significantly

Question: And the “OGTT glucose levels (area under the curve, AUC)” value ([1]; treated groups vs vehicle, 2 g/kg glucose PO after 16 hours fasting, ANOVA P=6.31e-19)?
Answer: significantly reduced

Question: And the “fat weight (DEXA)” value ([2]; 5-20 nmol/kg and 10-40 nmol/kg groups, end of study)?
Answer: significant fat loss

Question: What about the “soft weight (DEXA)” value ([2]; across groups, one-way ANOVA P=0.000486) of the same compound?
Answer: significant difference in soft weight

Question: And the “lean mass / lean weight (DEXA)” value ([2]; higher doses, end of study, ANOVA P=0.1416, listed as BXL-801)?
Answer: preserved or slightly increased; also recorded: did not indicate statistically significant differences

Question: What about the food intake ([3]; all dose groups, one-way ANOVA P=0.0712) of the same compound?
Answer: did not show a statistically significant difference

Question: What about the weight loss ([3]; daily subcutaneous, 1-4, 5-20 and 10-40 nmol/kg groups, one-way ANOVA P=0.00118) of the same compound?
Answer: significant dose-dependent increase in weight loss
